PubChem BioAssay AID504774 – Drosophila RNAi Screening Center | 2011
In all, the deposit lists about 23,000 reagents; below is a random part of those that have a named target and a result. 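Values are quantile-normalised luminescence on an arbitrary scale; higher means more cells surviving MMS.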 Not all columns of the deposit are shown.

Screen: 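Knock-downs that shift viability of MMS-exposed cells relative to untreated ones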 (primary screen)
Cell system: Drosophila Kc167 cells
Reagents: long dsRNA against Drosophila genes, about 0.25 µg dsRNA per well
Time to read-out: about 6 days: 3 days knock-down, then 3 days with or without MMS
Conditions: methyl methanesulphonate 0.004% (w/v) for 3 days after knock-down
Read-out: 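Viability in wells given MMS, read as ATP luminescence, normalised by quantiles plate by plate and averaged across replicates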
Direction: mean viability with MMS: higher = more surviving cells after MMS

Depletion of holn1 (hole-in-one) [DRSC02827] resulted in: mean viability with MMS 3.56e6.
For holn1 (hole-in-one) [DRSC22822], the entry reads mean viability with MMS 3.53e6.
Drat (Death resistor Adh domain containing target) [DRSC06600] scored mean viability with MMS 3.50e6.
CG18536 [DRSC06763] showed mean viability with MMS 3.70e6.
CG13589 [DRSC04225] showed mean viability with MMS 3.58e6.
After knock-down of Baldspot [DRSC09671], the screen gave mean viability with MMS 3.79e6.
Silencing of sns (sticks and stones) [DRSC06423] resulted in: mean viability with MMS 2.96e6.
sns (sticks and stones) [DRSC07687] gave mean viability with MMS 3.35e6.
Silencing of sns (sticks and stones) [DRSC07688] came out at: mean viability with MMS 1.97e6.
Knock-down of sns (sticks and stones) [DRSC07689] gave: mean viability with MMS 3.65e6.
Against sns (sticks and stones) [DRSC07691] the deposit lists mean viability with MMS 3.56e6.
After knock-down of sns (sticks and stones) [DRSC07692], the record shows mean viability with MMS 3.29e6.
Silencing of Teh4 (tipE homolog 4) [DRSC08457] resulted in: mean viability with MMS 3.46e6.
Knock-down of CG17202 [DRSC15194] came out at: mean viability with MMS 3.43e6.
Against CG17202 [DRSC23073], the entry reads mean viability with MMS 2.89e6.

2 entries already listed, ordered by “mean viability with MMS”, high to low.
Teh4 (tipE homolog 4) [DRSC08457] — mean viability with MMS = 3.46e6
CG17202 [DRSC15194] — mean viability with MMS = 3.43e6
